In patent US20220175882A1, “BETA-CASEIN A2 AND REDUCING OR […] OF LACTOSE INTOLERANCE” (THE A2 MILK COMPANY LIMITED, priority 2013, published 2022):

Legend:
SH-SY5Y neuronal cells = assay: Intracellular cysteine, GSH and SAM/SAH levels by HPLC with electrochemical detection; assay type: cell-based, human; conditions: 30 min, 4 h, 24 h
Protocol: Media was aspirated and the cells were washed twice with 1 mL of ice cold HBSS. HBSS was aspirated and 0.6 mL ice cold dH2O was added to the cells. The cells were scraped from the flask/dish and suspended in dH2O. […] The remaining lysate was added to a microcentrifuge tube and an equal volume of 0.4 N perchloric acid was added, followed by incubation on ice for 5 min. Samples were centrifuged at 5,000×g and the supernatant transferred to new microcentrifuge tubes.
The separation of redox and methylation pathway metabolites was accomplished using an Agilent Eclipse XDB-C8 analytical column (3×150 mm; 3.5 μm) and an Agilent Eclipse XDB-C8 (4.6×12.5 mm; 5 μm) guard column. […] The flow rate was initially set at 0.6 mL/min and a step gradient was used: 0-9 min 0% B, 9-19 min 50% B, 19-30 min 50% B. The column was then equilibrated with 5% B for 12 min prior to the next run. Temperature was maintained at 27° C. […] Sample concentrations were determined from the peak areas of metabolites using standard calibration curves and ESA-supplied HPLC software. Sample concentrations were normalised against protein content. In some cases samples were diluted in mobile phase as needed or up to 50 μl of sample was injected to assure that thiol levels were within the range of the standard curve.

[1] = tested on: SH-SY5Y human neuronal cells; assay: cells
Protocol: (§1) Pre-treatment in cells was performed for different time points for 30 min, 4, 24 and 48 h as described previously (Trivedi M., et al.; Mol. Pharm., 2014). SH-SY5Y human neuronal cells and Caco-2 Gut epithelial cells were plated in six-well plates and were pretreated with drugs and incubated for various times prior to measuring uptake. Media were aspirated and cells were washed with 600 μL of HBSS at 37° C. Non-radioactive HBSS was aspirated, replaced with 600 μL of 37° C. HBSS containing [^35S]-cysteine (1 μCl/1 mL), 10 μM unlabelled cysteine and 100 μM DTT, and the cells were incubated for 5 min. The [^35S]-cysteine/HBSS mixture was aspirated and treatment was terminated by two washes with ice-cold HBSS. Cells were then lysed with 600 μL of dH2O, scraped, collected in 1.5 mL microcentrifuge tubes, and sonicated for 10 s. 100 μL of each sample was aliquoted for protein assay. 200 μL of each sample (in triplicate) was aliquoted into scintillation vials with 4 mL of scintillation fluid, vortexed, and counted for radioactivity (normalised against protein content). […] The symbol * used in these figures indicates a statistically significant difference (p<0.05) compared against the untreated control, and the symbol # indicates a statistically significant difference (p<0.005) compared against the untreated control.

[2] = tested on: Caco-2 Gut epithelial cells; assay: cells; conditions: Homo sapiens, Caco-2, read-out: IC50, inhibition of cysteine uptake
Protocol: as §1

## CN1CC[C@]23c4c5ccc(O)c4O[C@H]2[C@@H](O)C=C[C@H]3[C@H]1C5 [Morphine, morphine]
SH-SY5Y neuronal cells
  Cysteine and glutathione (GSH) levels: time-dependent decreases
[1]; Homo sapiens, SH-SY5Y, read-out: IC50, inhibition of cysteine uptake
  IC50: 0.16 nM
[1]; in presence of CTAP (selective μ-antagonist) or naltrindole (delta antagonist), FIG. 6
  Receptor mediating the effect on cysteine uptake: μ-opioid receptor mediated
[1]; neuronal cells and GI epithelial cells (FIG. 5), 30 min to 48 h exposure
  Time course of inhibition of cysteine uptake: fully developed after 30 minutes and was sustained through 48 hours
[2]
  IC50: 6.38 nM
